Experimental data published in patent US11324852B2, “Coated silk films, methods for the production thereof and uses thereof” (AMSILK GMBH, priority 2014, dated 2022).
For at least one compound, name, drawing or mass did not settle the structure.

Tested on: C16 films
Assay: Remote loading of drugs and model protein lysozyme into C16 films
Format: physicochemical
Conditions: 30 min, room temperature
Description: Loading efficiency and loading were determinate for lysozyme dissolved in high purified water (HPW). For the remote loading of lysozyme, the loading solution was prepared dissolving 1% w/v lysozyme in high purified water. Three different films were weighted, following by incubation in a 6-well plate with 5 ml of the loading solution at room temperature, at 2 rpm. After 30 min, films were removed and the loading solution was diluted 1:20 and analysed photometrically at 280 nm recording its spectra using a spectrophotometer (Agilent Technologies 8453, Oberhaching, Germany). A calibration curve was prepared using the original lysozyme solution. The same method was performed using as incubation medium of 0.5% and 0.25% of lysozyme.
A) Low molecular weight drugs (tetracain hydrochloride, ethacridine monohydrate lactate, nipagin and phenol red) were dissolved at a concentration of 0.5 mg/ml in highly purified water (HPW), Tris 5 mM pH 7, and formate buffer 5 mM, pH 3, respectively. After dissolving the drugs, all solutions were filtered through a 0.45 μm cellulose acetate filter.
For the remote loading process, the previously cast C16 films were cut into pieces, weighed and placed into 24-well plates. At least four C16 film samples were incubated with 1 ml of each drug solutions for 30 min at gently agitation of 2 rpm at room temperature. After removing the C16 films, the quantities of the loaded drugs were calculated indirectly by measuring the remaining loading solutions photometrically. Finally, the loading and the loading-efficiency for each experimental condition were calculated (see Table 1).
For the remote loading of the model protein lysozyme, the loading solution was prepared by dissolving 1% w/v lysozyme in HPW. As before, three different C16 films were weighed. Afterwards, C16 films were incubated in a 6-well plate with 5 ml of the loading solution at gently agitation of 2 rpm at room temperature. After 30 min, C16 films were removed and the loading solution was analysed photometrically at 280 nm. Spectra were recorded using a spectrophotometer. At physiological pH, spider silk films are negatively charged.
B) For the remote loading of Lysozyme, the loading solution was prepared dissolving 1% w/v lysozyme in high purified water (HPW). Three different C16 films were weighted, followed by incubation in a 6-well plate with 5 ml of the loading solution at gently agitation of 2 rpm at room temperature. After 30 min, C16 films were removed and the loading solution was diluted 1:20 and analyzed photometrically at 280 nm. In particular, a spectra of this solution was subsequently recorded using a spectrophotometer (Agilent Technologies 8453, Oberhaching, Germany). A calibration curve was prepared using the original lysozyme solution. The same method was performed using an incubation medium with 0.5% and 0.25% of Lysozyme.

[1] = HPW (highly purified water), LMW drugs 0.5 mg/ml, lysozyme 1% w/v
[2] = pH 3 (formate buffer 5 mM), drug 0.5 mg/ml
[3] = pH 7 (Tris 5 mM), drug 0.5 mg/ml

What does the source list for `O=S1(=O)OC(c2ccc(O)cc2)(c2ccc(O)cc2)c2ccccc21` [Phenol red, phenol red]?
Loading (L) [1]: 0.3 ± 1.3%; Loading efficiency (LE) [1]: 2.8 ± 1.3%; Loading (L) [2]: 1.8 ± 0.7%; Loading efficiency (LE) [2]: 17.2 ± 5.0%; Loading (L) [3]: 0.7 ± 0.2%; Loading efficiency (LE) [3]: 7.2 ± 2.0%
